# Test results published in the supplement of paper PMC8728848.
# The list shows a part of the results.
# Columns and labels:
# Test in all cases: glycan array binding signal (z-score within array); higher = stronger binding
# Conditions in all cases: glycan notation: IUPAC condensed, linker removed
# [1] = target: Gal3S6S(b1-4)GlcNAc
# Method in brief: (§1)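 The binding signal is a Z-score computed within each array. Data were drawn from 3228 arrays in the Consortium for Functional Glycomics database, restricted to those with a known protein sequence. Scores were averaged over arrays of the same protein sequence at different concentrations or buffers, and over linkers, and negative values can be taken as non-binding.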
# [2] = target: Gal3S6S(b1-4)GlcNAc6S
# Method in brief: as §1
# [3] = target: Gal4S(b1-4)GlcNAc
# Method in brief: as §1
# [4] = target: Gal4S6S(b1-4)GlcNAc
# Method in brief: as §1
# [5] = target: Gal6P(b1-4)GlcNAc
# Method in brief: as §1
# [6] = target: Gal6S(b1-3)GlcNAc
# Method in brief: as §1
# [7] = target: Gal6S(b1-3)GlcNAc6S
# Method in brief: as §1
# [8] = target: Gal6S(b1-4)Glc
# Method in brief: as §1
# [9] = target: Gal6S(b1-4)Glc6S
# Method in brief: as §1
# [10] = target: Gal6S(b1-4)GlcNAc
# Method in brief: as §1
# [11] = target: Gal6S(b1-4)GlcNAc6S
# Method in brief: as §1
# [12] = target: GalNAc(a1-3)Gal
# Method in brief: as §1
# [13] = target: GalNAc(a1-3)GalNAc
# Method in brief: as §1
# [14] = target: GalNAc(a1-3)GalNAc(b1-3)Gal(a1-4)Gal(b1-4)Glc
# Method in brief: as §1
# [15] = target: GalNAc(a1-3)GalNAc(b1-3)Gal(a1-4)Gal(b1-4)GlcNAc
# Method in brief: as §1
# [16] = target: GalNAc(b1-3)Gal
# Method in brief: as §1
# [17] = target: GalNAc(b1-3)Gal(a1-4)Gal(b1-4)GlcNAc
# Method in brief: as §1
# [18] = target: GalNAc(b1-3)Gal(a1-4)Gal(b1-4)GlcNAc(b1-3)Gal(b1-4)Glc
# Method in brief: as §1
# [19] = target: GalNAc(b1-3)Gal(a1-6)Gal(b1-4)Glc
# Method in brief: as §1
# [20] = target: GalNAc(b1-3)GalNAc
# Method in brief: as §1
# [21] = target: GalNAc(b1-3)GlcNAc
# Method in brief: as §1
# [22] = target: GalNAc(b1-4)Gal(b1-4)Glc
# Method in brief: as §1
# [23] = target: GalNAc(b1-4)GlcNAc
# Method in brief: as §1
# [24] = target: GalNAc(b1-4)GlcNAc(b1-2)Man
# Method in brief: as §1
# [25] = target: GalNAc(b1-4)GlcNAc(b1-2)Man(a1-3)[GalNAc(b1-4)GlcNAc(b1-2)Man(a1-6)]Man(b1-4)GlcNAc(b1-4)GlcNAc
# Method in brief: as §1
# [26] = target: GalNAc(b1-4)GlcNAc(b1-3)GalNAc(b1-4)GlcNAc
# Method in brief: as §1
# [27] = target: GalNAc(b1-4)GlcNAc6S
# Method in brief: as §1
# [28] = target: GalNAc(b1-6)GalNAc
# Method in brief: as §1
# [29] = target: GalNAc3S(b1-4)GlcNAc
# Method in brief: as §1
# [30] = target: GalNAc3S(b1-4)GlcNAc3S
# Method in brief: as §1
# [31] = target: GalNAc3S(b1-4)[Fuc(a1-3)]GlcNAc
# Method in brief: as §1
# [32] = target: GalNAc4S6S(b1-4)GlcNAc
# Method in brief: as §1
# [33] = target: GalNAc6S(b1-4)GlcNAc
# Method in brief: as §1
# [34] = target: Glc(a1-4)Glc
# Method in brief: as §1
# [35] = target: Glc(a1-4)Glc(a1-4)Glc(a1-4)Glc
# Method in brief: as §1
# [36] = target: Glc(a1-6)Glc(a1-6)Glc
# Method in brief: as §1
# [37] = target: Glc(a1-6)Glc(a1-6)Glc(a1-6)Glc
# Method in brief: as §1
# [38] = target: Glc(b1-4)Glc
# Method in brief: as §1
binder,measurement,setting,value
"Clec18Av1 (Homo sapiens), A5D8T8 (protein) MLHPETSPGRGHLLAVLLALLGTAWAEVWPPQLQEQAPMAGALNRKESFLLLSLHNRLRSWVQPPAADMRRLDWSDSLAQLAQARAALCGTPTPSLASGLWRTLQVGWNMQLLPAGLVSFVEVVSLWFAEGQRYSHAAGECARNATCTHYTQLVWATSSQLGCGRHLCSAGQAAIEAFVCAYSPRGNWEVNGKTIVPYKKGAWCSLCTASVSGCFKAWDHAGGLCEVPRNPCRMSCQNHGRLNISTCHCHCPPGYTGRYCQVRCSLQCVHGRFREEECSCVCDIGYGGAQCATKVHFPFHTCDLRIDGDCFMVSSEADTYYRARMKCQRKGGVLAQIKSQKVQDILAFYLGRLETTNEVIDSDFETRNFWIGLTYKTAKDSFRWATGEHQAFTSFAFGQPDNHGFGNCVELQASAAFNWNDQRCKTRNRYICQFAQEHISRWGPGS",glycan array binding signal (z-score),[1],-0.757
same,glycan array binding signal (z-score),[2],-0.104
same,glycan array binding signal (z-score),[3],-0.586
same,glycan array binding signal (z-score),[4],-0.824
same,glycan array binding signal (z-score),[5],-0.61
same,glycan array binding signal (z-score),[6],-0.052
same,glycan array binding signal (z-score),[7],-0.393
same,glycan array binding signal (z-score),[8],0.34
same,glycan array binding signal (z-score),[9],1.21
same,glycan array binding signal (z-score),[10],-0.519
same,glycan array binding signal (z-score),[11],-0.233
same,glycan array binding signal (z-score),[12],-0.251
same,glycan array binding signal (z-score),[13],-0.279
same,glycan array binding signal (z-score),[14],0.22
same,glycan array binding signal (z-score),[15],-0.772
same,glycan array binding signal (z-score),[16],1.67
same,glycan array binding signal (z-score),[17],0.686
same,glycan array binding signal (z-score),[18],0.052
same,glycan array binding signal (z-score),[19],0.732
same,glycan array binding signal (z-score),[20],-0.839
same,glycan array binding signal (z-score),[21],2.24
same,glycan array binding signal (z-score),[22],-0.19
same,glycan array binding signal (z-score),[23],-0.281
same,glycan array binding signal (z-score),[24],0.139
same,glycan array binding signal (z-score),[25],1.73
same,glycan array binding signal (z-score),[26],-0.734
same,glycan array binding signal (z-score),[27],2.3
same,glycan array binding signal (z-score),[28],-0.525
same,glycan array binding signal (z-score),[29],-0.866
same,glycan array binding signal (z-score),[30],-0.866
same,glycan array binding signal (z-score),[31],0.645
same,glycan array binding signal (z-score),[32],-0.779
same,glycan array binding signal (z-score),[33],1.98
same,glycan array binding signal (z-score),[34],-0.791
same,glycan array binding signal (z-score),[35],-0.829
same,glycan array binding signal (z-score),[36],-0.315
same,glycan array binding signal (z-score),[37],-0.849
same,glycan array binding signal (z-score),[38],-0.268
